No constants are given. Whether binding was seen depends on the method and setting. Binding seen in cells or lysates may run through a third protein. A yes stands for co-enrichment or nearness to the bait. Other partners may have been found. Tags and fused reporters may be left off the sequences shown.

This note sets out measurements from publication PMC3008709.

The experiment concerns the target T1, full-length human IKKβ (Inhibitor of NFκB Kinase β subunit), non-epitope-tagged (human) (UniProt O14920).
T1 sequence: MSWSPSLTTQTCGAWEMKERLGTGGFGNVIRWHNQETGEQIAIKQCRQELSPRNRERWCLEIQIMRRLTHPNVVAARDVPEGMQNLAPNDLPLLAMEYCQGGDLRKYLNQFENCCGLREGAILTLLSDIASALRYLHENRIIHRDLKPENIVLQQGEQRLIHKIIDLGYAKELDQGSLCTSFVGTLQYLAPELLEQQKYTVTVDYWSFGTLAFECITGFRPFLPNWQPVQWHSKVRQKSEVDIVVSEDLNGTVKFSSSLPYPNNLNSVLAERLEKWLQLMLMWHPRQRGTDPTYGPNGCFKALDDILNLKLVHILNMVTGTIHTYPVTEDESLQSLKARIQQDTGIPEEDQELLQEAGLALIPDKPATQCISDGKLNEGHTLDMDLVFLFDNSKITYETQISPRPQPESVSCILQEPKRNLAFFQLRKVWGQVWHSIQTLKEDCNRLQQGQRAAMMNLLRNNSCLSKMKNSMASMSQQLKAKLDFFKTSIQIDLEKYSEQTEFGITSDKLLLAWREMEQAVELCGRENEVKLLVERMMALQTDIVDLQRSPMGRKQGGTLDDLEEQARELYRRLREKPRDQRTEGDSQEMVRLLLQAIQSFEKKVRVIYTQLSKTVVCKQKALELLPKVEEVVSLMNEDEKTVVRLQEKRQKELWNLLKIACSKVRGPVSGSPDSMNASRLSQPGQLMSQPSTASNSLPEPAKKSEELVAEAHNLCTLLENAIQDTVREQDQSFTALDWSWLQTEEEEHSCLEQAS
The experiment can be described thus: affinity purification with mass spectrometry; HEK293 cells transfected with FGFR4-K645E and IKKβ; IKKβ (H-4) immune complexes on Protein A-sepharose, trypsinized in 2 M urea; IMAC/nano-LC/ESI-MS; two independent samples.

In the case of “full-length constitutively active FGFR4-K645E (receptor)”, the binding result is listed as “binds”.
